Drawing on the supplement of paper PMC10849652, this text covers log2 fold change for 24 targets.

Protein sequences, listed by entry. Tags and fused reporters are not part of them. Lines headed by an entry give the natural chain unless they say otherwise; changes in a name come on top.
UniProt Q14558: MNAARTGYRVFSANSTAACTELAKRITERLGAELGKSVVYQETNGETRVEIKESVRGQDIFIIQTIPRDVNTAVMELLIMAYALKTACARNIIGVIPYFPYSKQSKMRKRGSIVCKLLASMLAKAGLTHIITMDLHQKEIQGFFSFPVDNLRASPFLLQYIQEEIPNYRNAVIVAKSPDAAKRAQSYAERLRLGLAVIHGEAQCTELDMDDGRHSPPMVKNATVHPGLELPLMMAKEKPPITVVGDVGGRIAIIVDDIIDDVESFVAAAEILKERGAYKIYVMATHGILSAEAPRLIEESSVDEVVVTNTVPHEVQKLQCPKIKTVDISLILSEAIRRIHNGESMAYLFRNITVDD
UniProt P08575: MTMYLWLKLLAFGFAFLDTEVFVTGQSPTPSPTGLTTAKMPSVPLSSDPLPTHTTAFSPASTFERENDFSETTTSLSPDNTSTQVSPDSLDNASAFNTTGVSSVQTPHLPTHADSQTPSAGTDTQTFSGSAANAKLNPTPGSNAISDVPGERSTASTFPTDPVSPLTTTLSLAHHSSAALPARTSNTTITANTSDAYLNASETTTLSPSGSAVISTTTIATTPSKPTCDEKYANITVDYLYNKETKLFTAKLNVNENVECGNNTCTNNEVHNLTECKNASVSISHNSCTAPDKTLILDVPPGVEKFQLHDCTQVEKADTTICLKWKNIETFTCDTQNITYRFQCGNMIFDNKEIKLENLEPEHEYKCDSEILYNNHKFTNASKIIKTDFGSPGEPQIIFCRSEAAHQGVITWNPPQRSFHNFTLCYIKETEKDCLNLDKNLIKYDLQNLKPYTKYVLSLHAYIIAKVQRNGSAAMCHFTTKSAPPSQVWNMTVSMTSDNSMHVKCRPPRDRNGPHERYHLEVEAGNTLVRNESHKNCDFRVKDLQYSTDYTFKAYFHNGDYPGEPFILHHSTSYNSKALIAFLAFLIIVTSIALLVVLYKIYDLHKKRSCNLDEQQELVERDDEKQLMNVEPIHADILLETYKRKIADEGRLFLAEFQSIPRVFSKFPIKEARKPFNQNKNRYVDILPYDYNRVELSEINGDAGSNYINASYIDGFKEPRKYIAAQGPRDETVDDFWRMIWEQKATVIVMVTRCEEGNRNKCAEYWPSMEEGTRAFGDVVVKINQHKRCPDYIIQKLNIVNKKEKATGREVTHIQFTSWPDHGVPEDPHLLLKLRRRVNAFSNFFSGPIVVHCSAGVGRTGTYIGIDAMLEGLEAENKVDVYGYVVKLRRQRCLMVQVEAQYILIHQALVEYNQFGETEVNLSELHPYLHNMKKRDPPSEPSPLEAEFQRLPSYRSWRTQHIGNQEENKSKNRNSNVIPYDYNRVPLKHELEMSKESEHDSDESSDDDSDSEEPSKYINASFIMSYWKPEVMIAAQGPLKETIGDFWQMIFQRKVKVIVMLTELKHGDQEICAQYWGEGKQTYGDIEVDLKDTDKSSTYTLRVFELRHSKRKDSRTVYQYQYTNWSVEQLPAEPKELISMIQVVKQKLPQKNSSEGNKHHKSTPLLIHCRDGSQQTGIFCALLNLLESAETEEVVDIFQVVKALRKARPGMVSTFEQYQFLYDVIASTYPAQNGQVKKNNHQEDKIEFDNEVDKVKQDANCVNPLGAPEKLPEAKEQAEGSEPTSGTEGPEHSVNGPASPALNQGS
UniProt Q96QR8: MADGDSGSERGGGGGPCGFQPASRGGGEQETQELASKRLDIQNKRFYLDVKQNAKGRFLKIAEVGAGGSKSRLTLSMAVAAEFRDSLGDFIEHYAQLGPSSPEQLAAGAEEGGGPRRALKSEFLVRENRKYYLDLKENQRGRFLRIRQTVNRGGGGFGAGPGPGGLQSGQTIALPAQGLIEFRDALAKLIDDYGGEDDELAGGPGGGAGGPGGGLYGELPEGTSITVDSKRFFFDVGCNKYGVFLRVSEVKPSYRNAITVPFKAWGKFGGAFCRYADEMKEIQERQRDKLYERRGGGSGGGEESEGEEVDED
UniProt Q86TP1: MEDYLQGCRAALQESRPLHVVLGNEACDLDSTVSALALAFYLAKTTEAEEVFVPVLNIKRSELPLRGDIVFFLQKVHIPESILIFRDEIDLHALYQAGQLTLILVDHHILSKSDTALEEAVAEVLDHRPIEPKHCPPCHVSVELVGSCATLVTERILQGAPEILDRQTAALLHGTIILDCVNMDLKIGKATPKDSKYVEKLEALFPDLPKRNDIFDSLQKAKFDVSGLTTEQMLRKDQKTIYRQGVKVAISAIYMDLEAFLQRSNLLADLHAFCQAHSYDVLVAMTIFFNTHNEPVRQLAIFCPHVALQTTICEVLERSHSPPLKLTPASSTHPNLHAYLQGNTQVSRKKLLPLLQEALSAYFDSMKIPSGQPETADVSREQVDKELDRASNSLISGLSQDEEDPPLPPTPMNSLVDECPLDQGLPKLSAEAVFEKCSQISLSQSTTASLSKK
UniProt P25786: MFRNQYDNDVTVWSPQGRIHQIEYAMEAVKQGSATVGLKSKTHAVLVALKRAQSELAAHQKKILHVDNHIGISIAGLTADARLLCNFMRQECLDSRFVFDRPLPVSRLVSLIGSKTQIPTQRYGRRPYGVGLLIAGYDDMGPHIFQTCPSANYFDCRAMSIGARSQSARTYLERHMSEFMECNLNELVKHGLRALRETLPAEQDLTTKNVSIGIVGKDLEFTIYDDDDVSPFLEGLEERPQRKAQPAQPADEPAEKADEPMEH
UniProt Q00577: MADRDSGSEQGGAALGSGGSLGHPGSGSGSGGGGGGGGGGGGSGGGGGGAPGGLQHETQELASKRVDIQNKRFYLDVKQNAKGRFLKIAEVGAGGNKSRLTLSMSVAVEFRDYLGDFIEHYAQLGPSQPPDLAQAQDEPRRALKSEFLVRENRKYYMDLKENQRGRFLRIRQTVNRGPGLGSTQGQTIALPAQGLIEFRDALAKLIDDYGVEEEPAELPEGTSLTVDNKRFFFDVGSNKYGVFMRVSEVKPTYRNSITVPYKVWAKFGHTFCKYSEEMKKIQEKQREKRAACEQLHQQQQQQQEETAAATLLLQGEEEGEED
UniProt O00232: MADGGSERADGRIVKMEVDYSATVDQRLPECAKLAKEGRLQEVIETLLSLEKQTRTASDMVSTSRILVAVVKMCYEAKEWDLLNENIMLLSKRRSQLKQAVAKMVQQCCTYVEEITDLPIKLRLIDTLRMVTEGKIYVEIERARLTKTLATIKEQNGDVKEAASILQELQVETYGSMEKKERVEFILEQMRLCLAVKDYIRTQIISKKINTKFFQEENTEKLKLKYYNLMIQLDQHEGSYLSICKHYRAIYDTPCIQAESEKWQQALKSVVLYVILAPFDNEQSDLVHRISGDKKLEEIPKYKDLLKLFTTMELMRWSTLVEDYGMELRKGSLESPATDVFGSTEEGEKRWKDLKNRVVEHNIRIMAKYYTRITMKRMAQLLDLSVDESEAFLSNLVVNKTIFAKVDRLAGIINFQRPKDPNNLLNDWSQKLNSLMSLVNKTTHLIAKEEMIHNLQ
UniProt Q6PGN9: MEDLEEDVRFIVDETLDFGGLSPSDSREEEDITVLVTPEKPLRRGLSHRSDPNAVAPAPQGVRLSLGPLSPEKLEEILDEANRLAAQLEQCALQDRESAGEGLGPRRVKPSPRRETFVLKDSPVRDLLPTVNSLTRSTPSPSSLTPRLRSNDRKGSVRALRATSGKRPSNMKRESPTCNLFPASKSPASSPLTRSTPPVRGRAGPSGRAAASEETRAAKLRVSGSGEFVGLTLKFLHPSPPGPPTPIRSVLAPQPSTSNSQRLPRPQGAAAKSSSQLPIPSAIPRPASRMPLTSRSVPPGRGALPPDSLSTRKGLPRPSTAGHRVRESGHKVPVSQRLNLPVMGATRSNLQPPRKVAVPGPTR
UniProt Q15269: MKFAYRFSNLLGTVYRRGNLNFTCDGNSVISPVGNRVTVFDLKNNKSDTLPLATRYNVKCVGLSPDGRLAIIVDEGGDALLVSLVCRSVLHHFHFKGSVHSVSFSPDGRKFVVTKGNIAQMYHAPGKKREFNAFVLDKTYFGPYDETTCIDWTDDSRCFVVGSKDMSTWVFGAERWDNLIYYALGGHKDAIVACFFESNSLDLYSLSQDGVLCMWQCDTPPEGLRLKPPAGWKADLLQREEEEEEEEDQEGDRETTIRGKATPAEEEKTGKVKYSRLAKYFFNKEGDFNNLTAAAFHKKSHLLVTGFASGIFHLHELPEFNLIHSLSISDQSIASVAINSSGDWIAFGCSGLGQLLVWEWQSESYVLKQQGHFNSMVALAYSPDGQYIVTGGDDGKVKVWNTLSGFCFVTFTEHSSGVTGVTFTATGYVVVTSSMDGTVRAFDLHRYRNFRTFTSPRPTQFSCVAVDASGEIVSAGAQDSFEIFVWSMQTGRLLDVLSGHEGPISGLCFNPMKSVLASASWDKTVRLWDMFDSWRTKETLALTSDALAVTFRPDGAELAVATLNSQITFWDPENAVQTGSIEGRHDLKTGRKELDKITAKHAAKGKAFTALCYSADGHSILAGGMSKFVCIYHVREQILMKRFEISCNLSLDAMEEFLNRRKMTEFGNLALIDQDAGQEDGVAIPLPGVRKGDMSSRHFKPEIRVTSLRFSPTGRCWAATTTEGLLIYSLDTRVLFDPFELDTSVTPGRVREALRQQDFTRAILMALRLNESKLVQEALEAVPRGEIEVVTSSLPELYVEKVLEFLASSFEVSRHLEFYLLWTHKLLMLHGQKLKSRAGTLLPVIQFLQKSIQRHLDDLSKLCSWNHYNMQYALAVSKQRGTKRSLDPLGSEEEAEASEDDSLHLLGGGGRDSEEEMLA
UniProt O95758: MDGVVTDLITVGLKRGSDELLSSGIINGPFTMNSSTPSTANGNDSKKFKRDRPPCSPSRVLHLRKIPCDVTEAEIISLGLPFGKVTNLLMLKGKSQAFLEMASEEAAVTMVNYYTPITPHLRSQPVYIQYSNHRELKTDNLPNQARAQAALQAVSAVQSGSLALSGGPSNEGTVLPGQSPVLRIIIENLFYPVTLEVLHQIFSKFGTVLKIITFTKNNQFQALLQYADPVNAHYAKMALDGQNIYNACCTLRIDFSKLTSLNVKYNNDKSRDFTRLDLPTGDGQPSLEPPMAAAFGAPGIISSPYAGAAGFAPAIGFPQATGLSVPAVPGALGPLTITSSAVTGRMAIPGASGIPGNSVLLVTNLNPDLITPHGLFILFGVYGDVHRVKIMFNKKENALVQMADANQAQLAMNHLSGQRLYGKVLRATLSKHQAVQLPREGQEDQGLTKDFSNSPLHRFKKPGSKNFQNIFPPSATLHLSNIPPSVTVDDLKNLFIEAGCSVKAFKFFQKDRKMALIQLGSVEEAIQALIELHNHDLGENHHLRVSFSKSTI
UniProt O95997: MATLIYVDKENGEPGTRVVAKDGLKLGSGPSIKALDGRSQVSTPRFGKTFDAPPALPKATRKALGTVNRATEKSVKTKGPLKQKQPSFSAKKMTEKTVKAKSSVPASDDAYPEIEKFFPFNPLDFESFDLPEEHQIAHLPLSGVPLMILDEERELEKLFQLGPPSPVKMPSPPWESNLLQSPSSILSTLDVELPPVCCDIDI
UniProt P62191: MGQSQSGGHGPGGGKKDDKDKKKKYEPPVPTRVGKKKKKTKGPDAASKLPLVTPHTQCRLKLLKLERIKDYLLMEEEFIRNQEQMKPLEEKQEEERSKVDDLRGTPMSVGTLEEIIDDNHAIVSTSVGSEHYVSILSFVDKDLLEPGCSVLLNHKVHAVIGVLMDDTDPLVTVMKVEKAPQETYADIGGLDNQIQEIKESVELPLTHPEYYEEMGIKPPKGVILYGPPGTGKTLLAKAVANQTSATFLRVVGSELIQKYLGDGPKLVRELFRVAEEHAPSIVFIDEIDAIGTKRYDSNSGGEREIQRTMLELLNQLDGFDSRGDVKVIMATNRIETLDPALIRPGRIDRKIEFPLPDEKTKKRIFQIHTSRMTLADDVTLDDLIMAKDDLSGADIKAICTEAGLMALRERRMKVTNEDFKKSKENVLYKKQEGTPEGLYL
UniProt P26599: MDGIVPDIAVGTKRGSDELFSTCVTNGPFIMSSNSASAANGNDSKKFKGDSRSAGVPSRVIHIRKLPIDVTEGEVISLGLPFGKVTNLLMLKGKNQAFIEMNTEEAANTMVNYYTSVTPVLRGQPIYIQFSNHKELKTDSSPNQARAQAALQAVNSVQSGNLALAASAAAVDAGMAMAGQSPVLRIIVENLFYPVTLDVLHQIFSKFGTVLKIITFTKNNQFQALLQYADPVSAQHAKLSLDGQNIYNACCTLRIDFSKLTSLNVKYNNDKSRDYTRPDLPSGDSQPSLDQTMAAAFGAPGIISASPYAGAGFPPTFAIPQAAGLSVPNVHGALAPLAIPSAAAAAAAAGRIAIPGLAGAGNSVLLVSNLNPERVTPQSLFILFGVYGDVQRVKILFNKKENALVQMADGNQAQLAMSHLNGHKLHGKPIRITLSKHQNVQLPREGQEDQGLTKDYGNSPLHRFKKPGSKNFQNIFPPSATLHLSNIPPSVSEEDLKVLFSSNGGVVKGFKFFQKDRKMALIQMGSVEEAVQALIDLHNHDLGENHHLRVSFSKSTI

The list shows a part of the results.

Common to all, as to experiment: log2 fold change, soluble protein after heating vs DMSO (PISA); higher = thermal stabilisation; K562 lysate, 10 uM; active = over 0.2 and 3.5 SD of the protein, either way, in both replicates (recomputed)
Compound in assay [1]: NCC(=O)Nc1ccc(-n2nc(C(F)(F)F)cc2-c2ccc3c(ccc4ccccc43)c2)cc1
The procedure, abridged:
(§1)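 Pellets of K562 cells were dounce-homogenised in PBS pH 7.4 with 1 mM MgCl2, and the crude extract was held at 1 mg/mL protein for a 30 min treatment with 10 μM compound. Aliquots were heated for 3 min over 48°C-58°C and pooled before NP-40 was added to 0.5% at 4°C. The supernatant from 21,000xg for 90 min was quantified by TMTpro 16plex LC-MS/MS with channel sums equalised. Values are reported from duplicates as log-two fold change in thermal stability relative to solvent controls.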

Compound in assay [2]: O=C(CCCCCCC(=O)Nc1ccccc1)NO [vorinostat]
The procedure, abridged: as §1

Compound in assay [3]: O=C(O)c1ccc2c(c1)nc(Nc1cccc(Cl)c1)c1ccncc12 [silmitasertib]
The procedure, abridged:
as §1

Compound in assay [4]: O=C1NC(=O)C(c2cnc3ccccn23)=C1c1cn2c3c(cc(F)cc13)CN(C(=O)N1CCCCC1)CC2
A digest of the protocol: as §1

Compound in assay [5]: c1cn2cc(-c3ccc4cn[nH]c4c3)nc(Nc3ccc(N4CCOCC4)cc3)c2n1 [entospletinib]
A digest of the protocol: as §1

For PRPSAP1 isoform 2 (UniProt Q14558), the log2 fold change was inactive: -0.012 in assay [1]; inactive: -0.06 in assay [2]; inactive: -0.003 in assay [3]; inactive: 0.043 in assay [4]; inactive: -0.041 in assay [5].

Turning to PTPRC (UniProt P08575), the log2 fold change is inactive: 0 in assay [1]; inactive: 0.092 in assay [2]; inactive: 0.01 in assay [3]; inactive: -0.006 in assay [4]; inactive: -0.035 in assay [5].

For the target PUDP isoform 4 (UniProt Q08623), the log2 fold change in assay [1] is inactive: -0.003; in assay [2] it was inactive: 0.148; in assay [3], inactive: -0.037; in assay [4] it was inactive: 0.013; in assay [5] it was inactive: -0.029.

As for PTGR2 (UniProt Q8N8N7), the log2 fold change in assay [1] was inactive: -0.083; in assay [2], active: 0.656; in assay [3] it was inactive: -0.002; in assay [4] it was inactive: 0.11; in assay [5], inactive: -0.005.

PURB (UniProt Q96QR8): the log2 fold change in assay [1] is inactive: -0.004; in assay [2], inactive: 0.064; in assay [3], inactive: -0.006; in assay [4], inactive: 0.007; in assay [5], inactive: -0.04.

Take PRUNE1 (UniProt Q86TP1): the log2 fold change is inactive: 0.009 in assay [1]; inactive: -0.053 in assay [2]; inactive: 0.016 in assay [3]; inactive: -0.017 in assay [4]; inactive: 0.017 in assay [5].

On to PSMC6 (UniProt P62333), for which the log2 fold change was inactive: 0.013 in assay [1]; inactive: -0.192 in assay [2]; inactive: 0.005 in assay [3]; inactive: 0.006 in assay [4]; inactive: 0 in assay [5].

Turning to PSMA1 isoform 2 (UniProt P25786), the log2 fold change in assay [1] is inactive: 0.017; in assay [2] it was inactive: 0.122; in assay [3] it was inactive: -0.014; in assay [4], inactive: 0.001; in assay [5] it was inactive: 0.024.

Take PURA (UniProt Q00577): the log2 fold change was inactive: -0.064 in assay [1]; inactive: 0.141 in assay [2]; inactive: 0.006 in assay [3]; inactive: -0.028 in assay [4]; inactive: -0.013 in assay [5].

Consider PSMD12 (UniProt O00232), for which the log2 fold change in assay [1] was inactive: 0.007; in assay [2] it was inactive: -0.014; in assay [3] it was inactive: -0.012; in assay [4] it was inactive: -0.025; in assay [5] it was inactive: 0.006.

For the target PTK2B (UniProt Q14289), the log2 fold change was inactive: 0.016 in assay [1]; active: -0.339 in assay [2]; inactive: 0.021 in assay [3]; inactive: -0.088 in assay [4]; inactive: -0.002 in assay [5].

As to PSRC1 (UniProt Q6PGN9), the log2 fold change in assay [1] is inactive: 0.029; in assay [2], inactive: -0.087; in assay [3], inactive: -0.002; in assay [4], inactive: 0; in assay [5], inactive: -0.007.

Consider PWP2 (UniProt Q15269), for which the log2 fold change was inactive: 0.007 in assay [1]; active: -0.547 in assay [2]; inactive: 0.029 in assay [3]; inactive: -0.014 in assay [4]; inactive: 0.019 in assay [5].

With PTPN7 isoform 3 (UniProt P35236), the log2 fold change in assay [1] was inactive: 0.031; in assay [2] it was active: -0.491; in assay [3], inactive: 0.01; in assay [4], inactive: -0.044; in assay [5] it was inactive: -0.008.

Consider PTTG1IP (UniProt P53801), for which the log2 fold change is inactive: 0.073 in assay [1]; inactive: -0.014 in assay [2]; inactive: 0.015 in assay [3]; inactive: -0.031 in assay [4]; inactive: -0.203 in assay [5].

Take PTP4A1 (UniProt Q93096): the log2 fold change in assay [1] is inactive: 0.019; in assay [2], active: -0.292; in assay [3] it was inactive: -0.003; in assay [4], inactive: 0.014; in assay [5], inactive: -0.009.

Consider PTBP3 isoform 4 (UniProt O95758), for which the log2 fold change was inactive: 0.025 in assay [1]; inactive: -0.212 in assay [2]; inactive: -0.011 in assay [3]; inactive: 0.012 in assay [4]; inactive: 0.057 in assay [5].

Take PSMD4 (UniProt P55036): the log2 fold change in assay [1] was inactive: -0.002; in assay [2] it was inactive: 0.023; in assay [3], inactive: 0; in assay [4] it was inactive: 0.014; in assay [5], inactive: 0.003.

Take PUS10 (UniProt Q3MIT2): the log2 fold change is inactive: -0.021 in assay [1]; inactive: -0.122 in assay [2]; inactive: 0.025 in assay [3]; inactive: 0.033 in assay [4]; inactive: -0.011 in assay [5].

With PTPN18 (UniProt Q99952), the log2 fold change was inactive: 0.038 in assay [1]; inactive: -0.068 in assay [2]; inactive: 0.086 in assay [3]; inactive: -0.045 in assay [4]; inactive: -0.009 in assay [5].

In the case of PUF60 (UniProt Q9UHX1), the log2 fold change in assay [1] is inactive: -0.007; in assay [2] it was inactive: 0.15; in assay [3] it was inactive: -0.029; in assay [4], inactive: 0.002; in assay [5], inactive: 0.002.

Take PTTG1 (UniProt O95997): the log2 fold change is inactive: 0.06 in assay [1]; inactive: 0.061 in assay [2]; inactive: 0.014 in assay [3]; inactive: -0.004 in assay [4]; inactive: 0.006 in assay [5].

In the case of PSMC1 (UniProt P62191), the log2 fold change is inactive: 0.025 in assay [1]; inactive: 0.039 in assay [2]; inactive: 0.009 in assay [3]; inactive: 0.004 in assay [4]; inactive: 0.022 in assay [5].

Consider PTBP1 (UniProt P26599), for which the log2 fold change is inactive: 0.029 in assay [1]; inactive: -0.167 in assay [2]; inactive: -0.005 in assay [3]; inactive: 0.006 in assay [4]; inactive: 0.026 in assay [5].
